The test system of this assay is Salmonella enterica serovar Typhimurium SL1344. The assay is described as follows: bacterial growth OD600 after 18 h with compound and polymyxin B; higher = more bacterial growth (less inhibition). Conditions: 50 µM, Mueller-Hinton broth.

This note sets out measurements from the supplement of paper PMC12889115.

The other results are listed elsewhere or left out. Values are raw readings; no control value is given beside them.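 In the initial screen, polymyxin B was used at a concentration that permeabilizes Salmonella's outer membrane but not its inner membrane. Maximum growth was set by DMSO wells with or without polymyxin B. Since plates varied, data were ranked per plate, and compounds giving the lowest OD600 advanced as hits.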

With `CCN1CCN(C2(C(=O)NC(C)c3ccc(F)cc3)Cc3ccccc3C2)CC1` (stereo not given), the “bacterial growth OD600” value (polymyxin B 0.75 µg/mL) was determined as 0.829.
Consider `COCCN(Cc1c[nH]c(C)n1)CC1CCCN(C2Cc3ccccc3C2)C1` (stereo not given), for which the “bacterial growth OD600” value (polymyxin B 0.75 µg/mL) amounted to 0.775.
In the case of `COc1cccc(CN2CCN(Cc3cccc4c3OCO4)CC2CCO)c1` (stereo not given), for the setting “polymyxin B 1 µg/mL”, the “bacterial growth OD600” value was 0.799.
For the compound `Cc1nc(N2CCC(C(=O)NC3CCCCCCC3)CC2)nc2cc(S(C)(=O)=O)ccc12`, the “bacterial growth OD600” value (polymyxin B 0.75 µg/mL) was found to be 0.848.
Turning to `CCc1csc(CCNc2ccc(-c3nc(C4CC4)no3)cn2)n1`, the “bacterial growth OD600” value (polymyxin B 1 µg/mL) is 0.814.
Take `COC(=O)C1CCN(Cc2ccc3c(c2)CN(C(=O)c2cnn(Cc4ccccc4)c2)CCO3)CC1`: the “bacterial growth OD600” value (polymyxin B 0.75 µg/mL) was 0.895.
For `COc1cc(C(=O)N2CCCC(C(=O)c3ccc(Cl)cc3C)C2)cc(OC)c1OC` (stereo not given), the “bacterial growth OD600” value (polymyxin B 1 µg/mL) is 0.88.
In the case of `CCCn1cc(CN2C[C@H]3OC(=O)N(Cc4ccccn4)[C@H]3C2)c(C)n1`, the “bacterial growth OD600” value (polymyxin B 0.75 µg/mL) was found to be 0.886.
Consider `CCCCN(Cc1ccccc1)C(=O)CCC1(Cc2ccc(OC)cc2F)CCC(=O)N1` (stereo not given), for which, under “polymyxin B 0.75 µg/mL”, the “bacterial growth OD600” value is 0.624.
Consider `O=C(N[C@H]1CCCCNC1=O)c1ccc2oc(-c3cccc(F)c3)nc2c1`, for which the “bacterial growth OD600” value (polymyxin B 0.75 µg/mL) came out at 0.795.
The same measure, in the same setting: to `Fc1cccc(C2CCN(Cc3ccc4nccnc4c3)c3ccccc3S2)c1` (stereo not given) belongs 0.02.
Regarding `CC(C)CN(C)c1ccc(C(=O)N2CCC(Oc3cccnc3)CC2)cn1`, the “bacterial growth OD600” value (polymyxin B 1 µg/mL) came to 0.816.
For the compound `Cn1ccnc1CN1CCN(C(=O)c2cc(COc3ccccc3)on2)CC1`, for the setting “polymyxin B 1 µg/mL”, the “bacterial growth OD600” value was found to be 0.984.
For `COc1cc(CNC2CCCCCCC2)ccc1OCC(O)CN1CCC(O)CC1` (stereo not given), the “bacterial growth OD600” value (polymyxin B 0.75 µg/mL) is 0.854.
`O=C(NCCc1cccnc1)c1cc(COc2ccc3c(c2)OCO3)[nH]n1`: the “bacterial growth OD600” value (polymyxin B 1 µg/mL) was 1.15.
`O=C(c1ccccc1OC1CCN(Cc2ccc3c(c2)OCCO3)CC1)N1CCCC1`: the “bacterial growth OD600” value (polymyxin B 1 µg/mL) was found to be 1.25.
Turning to `CO[C@H]1[C@H](NC(=O)c2ccncc2)c2ccccc2C12CCN(C(=O)c1ccc(C(C)=O)cc1)CC2`, the “bacterial growth OD600” value (polymyxin B 0.75 µg/mL) came out at 0.779.
With `CN(Cc1ccncn1)C(=O)c1csc2nc(-c3ccc(Cl)cc3)cn12`, for the setting “polymyxin B 0.75 µg/mL”, the “bacterial growth OD600” value is 0.739.
Same read-out and setting: to `Cc1cc2nc(N3CCC(C(=O)NC4CCOC(C)(C)C4)CC3)nc(C)c2cc1C` (stereo not given) belongs 0.836.
Regarding `CCOC(=O)C1(CCc2ccccc2)CCN(C(=O)c2ccc(OC)c(F)c2)CC1`, the “bacterial growth OD600” value (polymyxin B 1 µg/mL) was 0.804.
